Test results as given in the supplement of paper PMC7125110.
± gives the standard error. Many entries were measured with a wide error.

B1: glmS ribozyme (parent)
chain: AUAAAAGCGCCAGAACUACAGAAAUGUAGUUGACGAGGAGGAGGUUUAUCGAAUUUUCGGCGGAUGCCUCCAAA

Variants of: B1
Test: self-cleavage kobs at 40 uM GlcN6P; higher = faster cleavage; RNA array
Conditions: with glucosamine-6-phosphate
Procedure, shortened: (§1)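 Barcoded ribozyme variants, transcribed in situ by E. coli RNA polymerase on sequenced MiSeq chips, were followed via a hybridised Cy3 probe at 37 °C. Glucosamine-6-phosphate ranged from 40 μM to 10 mM in HEPES/KCl/Mg(OAc)2 buffer. kobs came from decay fits to per-tile medians, and kcat and KM from weighted Michaelis–Menten fits.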

Variant	self-cleavage kobs at 40 uM GlcN6P
AUAAAAGCGCCAGAACUACAGAAAUGUACUUGACGAGGAGGAGGUUUAUGGAAUUUUCGGUGGAUGCCUCCAAA	4.42e-05 ± 3.1e-05 s⁻¹
AUAAAAGCGCCAGAACUACAGAAAUGUAUUUGACGAGCAGGAGGUUUAUCGAAUUUUGGGCGGAUGCAUCAAAA	4.64e-05 ± 3.1e-05 s⁻¹
AUAAAAGCGCCAGAACUACAGAAAUGUAGAUGACGAGGAGGAGGUUGAUCGAGUUUUCGGCGGAUGCCUCCAAA	2.28e-05 ± 1.4e-05 s⁻¹
AUAAAAGCGCCAGAACUACAGAAAUGUAGCUGACGAGGGGGAGGUUUAUCGAAUUUUCGGCGGAUGCCUCCAAA	2.23e-05 ± 2.2e-05 s⁻¹
AUAAAAGCGCCAGAACUACAGAAAUGUAGUGGUCGAGGAGGAGGUUUCUCGAAUUGUCGGCGGAUGGAUCCAAA	2.49e-05 ± 2e-05 s⁻¹
AUAAAAGCGCCAGAACUACAGAAAUGUAGUUCACGAGGAGGAGGUUUAUCUAAUUUUCGGCGGAUGCCUACAAA	4.46e-05 ± 2.3e-05 s⁻¹
AUAAAAGCGCCAGAACUACAGAAAUGUAGUUUUCGAGGAGGAGGUUUAUGGAAUUUUCGGCGGAUGCCUCCAAA	3.53e-05 ± 2.2e-05 s⁻¹
AUAAAAGCGCCAGAACUACAGAAAUGUAGUUGACGGGUAGGAGGUUUAUCGAAUUUUCGGCGGAUGCGUCCAAA	2.79e-05 ± 2.4e-05 s⁻¹
AUAAAAGCGCCAGAACUACAGAAAUGUAGUUGACGUGGAGGAGGUUUAUCGAAUUUUCGGCGGAUGCGUCUAAA	3.54e-05 ± 2.1e-05 s⁻¹
AUAAAAGCGCCAGAACUACAGAAAUGUAGUUGACGAAGAGGAGGUUUAUCGAAUUUUCGGCGGAUGUCUCCAAA	2.48e-05 ± 1.4e-05 s⁻¹
AUAAAAGCGCCAGAACUACAGAAAUGUAGUUGACGAAGAGGAGGUCUAUCGAAUUUUCGGCGGAUGCCUCCAAA	1.58e-05 ± 1.2e-05 s⁻¹
AUAAAAGCGCCAGAACUACAGAAAUGUAGUUGACGAGUAGGAGGUUUAUGGAAUUUUCGGCGGAUGCCUCCAAA	2.69e-05 ± 1.4e-05 s⁻¹
AUAAAAGCGCCAGAACUACAGAAAUGUAGUUGACGAGUAGGAGGUUUAUCGAAUUUUCUGCGGAUGCGUCCAAA	3.38e-05 ± 2.3e-05 s⁻¹
AUAAAAGCGCCAGAACUACAGAAAUGUAGUUGACGAGGAGGGGGUGUAUCGAAUUCUCGGCGGAUGCCUCCAAA	2.96e-05 ± 2.5e-05 s⁻¹
AUAAAAGCGCCAGAACUACAGAAAUGUAGUUGACGAGGAGGACGUUUAUCGAAUUUUCGGCGGAUGACUCCAAA	1.39e-05 ± 9.4e-06 s⁻¹
AUAAAAGCGCCAGAACUACAGAAAUGUAGUUGACGAGGAGGACGUUUAUCGAAUUUUCGGCGGAUGGCUCCAAA	1.86e-05 ± 1.6e-05 s⁻¹
AUAAAAGCGCCAGAACUACAGAAAUGUAGUUGACGAGGAGGAGGUGUAUCGAAUUUUCGGGGGAUGCCUCGAAA	3.21e-05 ± 2.3e-05 s⁻¹
AUAAAAGCGCCAGAACUACAGAAAUGUAGUUGACGAGGAGGAGGUGUAUCGAAUUCUCGGCGGAUGCCUCCAAA	2.12e-05 ± 1.5e-05 s⁻¹
AUAAAAGCGCCAGAACUACAGAAAUGUAGUUGACGAGGAGGAGGUUAAUCGAAUUUUCGGCGGAGUCCUCCAAA	3.3e-05 ± 1.9e-05 s⁻¹
AUAAAAGCGCCAGAACUACAGAAAUGUAGUUGACGAGGAGGAGGUUGAUCGAAUUUUAUGCGGAUGCCUGCAAA	3.28e-05 ± 2.1e-05 s⁻¹
AUAAAAGCGCCAGAACUACAGAAAUGUAGUUGACGAGGAGGAGGUUGAUCGAAUUUUCGGCGGAUGCCUCGAAA	1.04e-05 ± 8.6e-06 s⁻¹
AUAAAAGCGCCAGAACUACAGAAAUGUAGUUGACGAGGAGGAGGUUUGUCGAAUUUUCGGCGGAUGACUCGAAA	3.03e-05 ± 2.5e-05 s⁻¹
AUAAAAGCGCCAGAACUACAGAAAUGUAGUUGACGAGGAGGAGGUUUAUAGAAUUUUCGGCGGAUGUUUCCAAA	2.75e-05 ± 2.1e-05 s⁻¹
AUAAAAGCGCCAGAACUACAGAAAUGUAGUUGACGAGGAGGAGGUUUAUGGAAUUUUUGGCGGACGCCUCCAAA	3.27e-05 ± 2.2e-05 s⁻¹
AUAAAAGCGCCAGAACUACAGAAAUGUAGUUGACGAGGAGGAGGUUUAUGGAAUUUUCGGCGGAUGGCUCCAAA	1.59e-05 ± 1.1e-05 s⁻¹

Taken from the listing for reference:
Variant	self-cleavage kobs at 40 uM GlcN6P
AUAAAAGCGCCAGAACUACAGAAAUGUAGUUGACGAGGAGGAGGUGUAUCGAAUUUUCGGGGGAUGCCUCGAAA	3.21e-05 ± 2.3e-05 s⁻¹
AUAAAAGCGCCAGAACUACAGAAAUGUAGUUGACGAGGAGGAGGUGUAUCGAAUUCUCGGCGGAUGCCUCCAAA	2.12e-05 ± 1.5e-05 s⁻¹
AUAAAAGCGCCAGAACUACAGAAAUGUAGUUGACGAGGAGGAGGUUAAUCGAAUUUUCGGCGGAGUCCUCCAAA	3.3e-05 ± 1.9e-05 s⁻¹

Variants of: B1
Test: self-cleavage kobs at 10000 uM GlcN6P; higher = faster cleavage; RNA array
Conditions: with glucosamine-6-phosphate
Procedure, shortened: as §1

Variant	self-cleavage kobs at 10000 uM GlcN6P
AUAAAAGCGCCAGAACUACAGAAAUGUACUUGACGAGGAGGAGGUUUAUGGAAUUUUCGGUGGAUGCCUCCAAA	3.24e-05 ± 1.8e-05 s⁻¹
AUAAAAGCGCCAGAACUACAGAAAUGUAGUUGACGAGUAGGAGGUUUAUGGAAUUUUCGGCGGAUGCCUCCAAA	1.92e-05 ± 1.3e-05 s⁻¹
AUAAAAGCGCCAGAACUACAGAAAUGUAGUUGACGAGGAGGAGGUUGAUCGAAUUUUAUGCGGAUGCCUGCAAA	2.11e-05 ± 1.6e-05 s⁻¹
AUAAAAGCGCCAGAACUACAGAAAUGUAGUUGACGAGGAGGAGGUUUAUGGAAUUUUCGGCGGAUGGCUCCAAA	1.09e-05 ± 9.9e-06 s⁻¹

Variants of: B1
Test: self-cleavage kobs at 640 uM GlcN6P; higher = faster cleavage; RNA array
Conditions: with glucosamine-6-phosphate
Procedure, shortened: as §1

Variant	self-cleavage kobs at 640 uM GlcN6P
AUAAAAGCGCCAGAACUACAGAAAUGUAUUUGACGAGCAGGAGGUUUAUCGAAUUUUGGGCGGAUGCAUCAAAA	5.98e-05 ± 4e-05 s⁻¹
AUAAAAGCGCCAGAACUACAGAAAUGUAGUUGACGAGUAGGAGGUUUAUGGAAUUUUCGGCGGAUGCCUCCAAA	3.04e-05 ± 1.9e-05 s⁻¹
AUAAAAGCGCCAGAACUACAGAAAUGUAGUUGACGAGGAGGAGGUGUAUCGAAUUUUCGGGGGAUGCCUCGAAA	0.000145 ± 7.6e-05 s⁻¹

Variants of: B1
Test: self-cleavage kobs at 160 uM GlcN6P; higher = faster cleavage; RNA array
Conditions: with glucosamine-6-phosphate
Procedure, shortened: as §1

Variant	self-cleavage kobs at 160 uM GlcN6P
AUAAAAGCGCCAGAACUACAGAAAUGUAGUUCACGAGGAGGAGGUUUAUCUAAUUUUCGGCGGAUGCCUACAAA	3.39e-05 ± 2.8e-05 s⁻¹
AUAAAAGCGCCAGAACUACAGAAAUGUAGUUGACGAGUAGGAGGUUUAUGGAAUUUUCGGCGGAUGCCUCCAAA	3.52e-05 ± 2.3e-05 s⁻¹
AUAAAAGCGCCAGAACUACAGAAAUGUAGUUGACGAGGAGGACGUUUAUCGAAUUUUCGGCGGAUGGCUCCAAA	1.71e-05 ± 1.4e-05 s⁻¹

Variants of: B1
Test: self-cleavage kobs at 2500 uM GlcN6P; higher = faster cleavage; RNA array
Conditions: with glucosamine-6-phosphate
Procedure, shortened: as §1

Variant	self-cleavage kobs at 2500 uM GlcN6P
AUAAAAGCGCCAGAACUACAGAAAUGUAGUUCACGAGGAGGAGGUUUAUCUAAUUUUCGGCGGAUGCCUACAAA	3.74e-05 ± 3.6e-05 s⁻¹
AUAAAAGCGCCAGAACUACAGAAAUGUAGUUGACGGGUAGGAGGUUUAUCGAAUUUUCGGCGGAUGCGUCCAAA	5.42e-05 ± 3.2e-05 s⁻¹
AUAAAAGCGCCAGAACUACAGAAAUGUAGUUGACGAGGAGGAGGUUUAUGGAAUUUUCGGCGGAUGGCUCCAAA	1.36e-05 ± 8.5e-06 s⁻¹
